Results deposited as PubChem BioAssay AID652272 (Drosophila RNAi Screening Center, 2013).
The deposit covers about 21,000 reagents; this is an unselected part of those with a known target gene and a result. Of all reagents, 503 (2.4%) are marked active. 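Raw plate light values, not normalised; calls rest on replicate z-scores that were not deposited; hits include reporter decreases as well as increases.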 A plus sign joins genes that one reagent is predicted to hit. Reagent sequences are not shown. Not given: the amount of reagent, the time to read-out.

- Assay: 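Finding fly genes that regulate Hedgehog signal transduction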 (primary screen)
- System: Drosophila clone 8 (Cl8) cells
- Reagents: long dsRNA against Drosophila genes
- Measured: 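Firefly light from a Hedgehog-responsive ptc promoter reporter and Renilla reference light, both read on a plate reader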
- Scale: firefly Hh reporter signal: higher = more ptc reporter light; Renilla reference signal: higher = more Renilla control light
- Hit rule: 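Called a hit if the two-replicate mean z-score lies below -2 or above +3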
- Calls: active = hit: reporter lowered or raised; inactive = not a hit

target gene	amplicon	firefly Hh reporter signal, replicate 1	firefly Hh reporter signal, replicate 2	firefly Hh reporter signal, replicate 3	Renilla reference signal, replicate 1	Renilla reference signal, replicate 2	call
l(2)37Cd (lethal (2) 37Cd)	DRSC02069	98251	79604		4240	3264	inactive
CG12594	DRSC14532	1.27e5	1.38e5		4456	3719	inactive
Bhmt (Betaine-homocysteine S-methyltransferase)	DRSC02079	49257	29869		1368	3254	inactive
gig (gigas)	DRSC11351	1.08e5	84712		4379	3143	inactive
CG13313	DRSC09984	36441	55605		409	4176	inactive
cindr (CIN85 and CD2AP related)	DRSC14126	1.00e5	80730		1952	2113	inactive
cindr (CIN85 and CD2AP related)	DRSC14298	47347	84368		1270	5456	inactive
CheA86a (Chemosensory protein A 86a)	DRSC12839	49629	2.14e5		9985	4250	inactive
Nf-YC (Nuclear factor Y-box C)	DRSC18272	36754	38902		1700	2432	inactive
Aos1 (Activator of SUMO 1)	DRSC14113	55492	1.31e5		1786	6802	inactive
CG7294	DRSC03041	1.54e5	54002		3714	7440	inactive
bark (bark beetle)	DRSC00635	1.38e5	56336		3530	5813	inactive
CG13917	DRSC08386	1.46e5	1.15e5		5968	4525	inactive
U3-55K (U3 small nuclear riboprotein factor 55K)	DRSC05982	73969	42935		2541	3692	inactive
CG42818	DRSC01963	1.27e5	1.08e5		3219	7910	inactive
CG31710	DRSC01089	7.64e5	7.75e5	3.50e5	37832	5787	inactive
Mlc1 (Myosin alkali light chain 1)	DRSC16740	79052	77987		2592	2864	inactive
FER (FER tyrosine kinase)	DRSC12735	3.66e5			8136		inactive
FER (FER tyrosine kinase)	DRSC16673	68689	1.13e5		2307	3060	inactive
CG13405	DRSC08310	1.03e5	46469		3687	4148	inactive
BBS1 (Bardet-Biedl syndrome 1)	DRSC10196	5.28e5	73926		2656	2656	inactive
CG42331	DRSC14633	5.28e5	72768		2210	2210	inactive
CG42331	DRSC16126	5.84e5	1.22e5		30961	3908	inactive
CG15731	DRSC19698	1.43e5	3.52e5		5122	14165	inactive
CG33278	DRSC10336	38922	73091		5633	5889	inactive
ppk25 (pickpocket 25)	DRSC04973	98967	63328		2453	5493	inactive
CG14499	DRSC06470	81812	60357		1973	4486	inactive
CG12746	DRSC12218	1.38e5	96553		5014	4077	inactive
LpR1 (Lipophorin receptor 1)	DRSC15665	1.01e5	95248		2192	2728	inactive
LpR1 (Lipophorin receptor 1)	DRSC15669	5.59e5	1.14e5		32448	4427	inactive
LpR1 (Lipophorin receptor 1)	DRSC15670	5.35e5	1.10e5		28744	3304	inactive
Mes2 (Mesoderm-expressed 2)	DRSC11593	2.06e5			3592		inactive
Mes2 (Mesoderm-expressed 2)	DRSC11632	1.02e5	5.64e5	75224	3024	28036	inactive
yellow-e	DRSC12966	52224	3.44e5		10621	7760	inactive
yellow-e	DRSC16563	1.03e5	91520		3575	2458	inactive
CG41520	DRSC21102	5.79e5	2.65e5		34496	6467	inactive
CG41520	DRSC21103	70336	2.37e5		2240	10285	inactive
jigr1 (jing interacting gene regulatory 1)	DRSC13724	1873	2.84e5		609	6167	inactive
jigr1 (jing interacting gene regulatory 1)	DRSC15233	6.74e5	1.56e5		34330	4004	inactive
CG30110	DRSC05686	99068	2.17e5		2587	9099	inactive
CG8237	DRSC07119	82311	50597		3085	1925	inactive
Tis11 (Tis11 zinc finger protein)	DRSC20293	70437	54546		1612	1157	inactive
CG14866	DRSC14989	98610	1.10e5		2683	2370	inactive
axed (axundead)	DRSC08833	95293	2.29e5		2345	8851	inactive
axed (axundead)	DRSC10982	57833	50716		4967	3308	inactive
CG15337	DRSC18020	1.56e5	5.11e5		5523	15589	inactive
CG3337	DRSC15478	4.23e5	93357		4417	4417	inactive
CG14244	DRSC14739	67671	1.06e5		2642	3425	inactive
CG31191	DRSC13455	44180	3.25e5		8618	8170	inactive
CG31191	DRSC15214	5.61e5	82736		27961	1883	inactive
CG31191	DRSC15215	4.78e5	55287		25449	1692	inactive
E(z) (Enhancer of zeste)	DRSC11147	88409	98752		4051	4144	inactive
CG10337	DRSC02038	80651	71754		1664	5979	inactive
CG43125	DRSC13866	65157	4.14e5		15110	9184	inactive
CG43666 + CG43667 + CG43668	DRSC03829	1.68e5	3.68e5		4528	14960	inactive
CG43666 + CG43667 + CG43668	DRSC04233	1.11e5	62170		2636	5013	inactive
CG33978	DRSC17106	4.54e5	1.85e5		21096	3848	inactive
